This is one part of the list.

Amino acid sequences for entries named in this document (tags omitted). A change or cut given only in a name is not applied to a line headed by its entry.
UniProt Q9BZK7: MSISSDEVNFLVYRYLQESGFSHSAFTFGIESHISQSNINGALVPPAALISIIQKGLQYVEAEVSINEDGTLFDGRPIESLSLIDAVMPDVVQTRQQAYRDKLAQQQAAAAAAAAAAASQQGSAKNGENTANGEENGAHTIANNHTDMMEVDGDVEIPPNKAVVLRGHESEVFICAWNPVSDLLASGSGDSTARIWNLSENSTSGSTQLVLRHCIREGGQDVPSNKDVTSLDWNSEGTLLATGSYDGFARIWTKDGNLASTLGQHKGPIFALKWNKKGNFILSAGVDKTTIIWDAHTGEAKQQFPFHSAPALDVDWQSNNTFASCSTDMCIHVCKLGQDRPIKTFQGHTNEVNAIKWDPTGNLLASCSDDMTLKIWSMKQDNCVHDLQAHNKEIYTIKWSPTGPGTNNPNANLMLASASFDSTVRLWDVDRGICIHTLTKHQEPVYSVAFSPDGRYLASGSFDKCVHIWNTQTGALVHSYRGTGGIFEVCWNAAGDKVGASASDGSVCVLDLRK
UniProt Q9C0B7: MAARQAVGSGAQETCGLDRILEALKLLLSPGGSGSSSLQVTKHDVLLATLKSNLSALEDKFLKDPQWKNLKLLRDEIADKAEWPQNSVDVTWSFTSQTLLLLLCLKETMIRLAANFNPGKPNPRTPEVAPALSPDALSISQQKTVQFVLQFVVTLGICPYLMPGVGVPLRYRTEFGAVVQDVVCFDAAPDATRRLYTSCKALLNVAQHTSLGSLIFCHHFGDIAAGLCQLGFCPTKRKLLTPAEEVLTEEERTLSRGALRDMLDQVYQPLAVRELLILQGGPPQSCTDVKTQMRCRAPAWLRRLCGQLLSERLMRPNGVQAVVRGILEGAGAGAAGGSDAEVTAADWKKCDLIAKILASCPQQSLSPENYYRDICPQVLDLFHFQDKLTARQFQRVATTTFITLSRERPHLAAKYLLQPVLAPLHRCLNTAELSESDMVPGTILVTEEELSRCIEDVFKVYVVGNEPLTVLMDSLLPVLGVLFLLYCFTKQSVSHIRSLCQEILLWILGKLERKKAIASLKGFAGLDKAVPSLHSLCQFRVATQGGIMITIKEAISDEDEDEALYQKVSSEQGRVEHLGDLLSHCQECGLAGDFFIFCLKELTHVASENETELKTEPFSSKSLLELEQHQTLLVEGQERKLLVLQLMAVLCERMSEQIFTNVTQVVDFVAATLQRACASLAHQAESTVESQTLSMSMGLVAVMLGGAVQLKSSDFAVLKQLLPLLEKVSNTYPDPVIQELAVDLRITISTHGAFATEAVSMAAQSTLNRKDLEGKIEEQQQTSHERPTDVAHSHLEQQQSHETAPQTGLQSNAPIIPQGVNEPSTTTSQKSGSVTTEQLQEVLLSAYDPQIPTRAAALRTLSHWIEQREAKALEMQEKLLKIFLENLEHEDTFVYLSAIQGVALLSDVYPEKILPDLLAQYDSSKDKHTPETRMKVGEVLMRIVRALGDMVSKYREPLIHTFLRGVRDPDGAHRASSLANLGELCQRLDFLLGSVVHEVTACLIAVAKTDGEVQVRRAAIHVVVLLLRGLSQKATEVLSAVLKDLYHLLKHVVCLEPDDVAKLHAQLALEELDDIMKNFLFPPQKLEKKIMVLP
UniProt Q9NUW8, whole entry, looked up: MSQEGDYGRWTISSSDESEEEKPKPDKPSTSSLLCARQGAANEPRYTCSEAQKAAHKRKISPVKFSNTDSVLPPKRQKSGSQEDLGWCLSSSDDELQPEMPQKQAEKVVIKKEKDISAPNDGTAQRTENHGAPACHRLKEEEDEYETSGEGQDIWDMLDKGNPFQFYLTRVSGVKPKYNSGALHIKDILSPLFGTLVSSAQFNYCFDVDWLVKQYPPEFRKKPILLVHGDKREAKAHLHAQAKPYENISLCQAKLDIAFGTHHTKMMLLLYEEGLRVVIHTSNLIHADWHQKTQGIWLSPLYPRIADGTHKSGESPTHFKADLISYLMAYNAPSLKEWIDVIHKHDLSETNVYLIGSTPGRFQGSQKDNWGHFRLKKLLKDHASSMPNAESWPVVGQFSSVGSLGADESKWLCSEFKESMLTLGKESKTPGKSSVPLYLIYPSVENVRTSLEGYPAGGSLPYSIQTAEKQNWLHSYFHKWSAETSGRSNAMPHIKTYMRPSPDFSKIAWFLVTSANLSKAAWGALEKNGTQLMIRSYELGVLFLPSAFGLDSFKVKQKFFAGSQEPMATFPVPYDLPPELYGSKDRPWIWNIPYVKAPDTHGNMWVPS
UniProt Q9UL54: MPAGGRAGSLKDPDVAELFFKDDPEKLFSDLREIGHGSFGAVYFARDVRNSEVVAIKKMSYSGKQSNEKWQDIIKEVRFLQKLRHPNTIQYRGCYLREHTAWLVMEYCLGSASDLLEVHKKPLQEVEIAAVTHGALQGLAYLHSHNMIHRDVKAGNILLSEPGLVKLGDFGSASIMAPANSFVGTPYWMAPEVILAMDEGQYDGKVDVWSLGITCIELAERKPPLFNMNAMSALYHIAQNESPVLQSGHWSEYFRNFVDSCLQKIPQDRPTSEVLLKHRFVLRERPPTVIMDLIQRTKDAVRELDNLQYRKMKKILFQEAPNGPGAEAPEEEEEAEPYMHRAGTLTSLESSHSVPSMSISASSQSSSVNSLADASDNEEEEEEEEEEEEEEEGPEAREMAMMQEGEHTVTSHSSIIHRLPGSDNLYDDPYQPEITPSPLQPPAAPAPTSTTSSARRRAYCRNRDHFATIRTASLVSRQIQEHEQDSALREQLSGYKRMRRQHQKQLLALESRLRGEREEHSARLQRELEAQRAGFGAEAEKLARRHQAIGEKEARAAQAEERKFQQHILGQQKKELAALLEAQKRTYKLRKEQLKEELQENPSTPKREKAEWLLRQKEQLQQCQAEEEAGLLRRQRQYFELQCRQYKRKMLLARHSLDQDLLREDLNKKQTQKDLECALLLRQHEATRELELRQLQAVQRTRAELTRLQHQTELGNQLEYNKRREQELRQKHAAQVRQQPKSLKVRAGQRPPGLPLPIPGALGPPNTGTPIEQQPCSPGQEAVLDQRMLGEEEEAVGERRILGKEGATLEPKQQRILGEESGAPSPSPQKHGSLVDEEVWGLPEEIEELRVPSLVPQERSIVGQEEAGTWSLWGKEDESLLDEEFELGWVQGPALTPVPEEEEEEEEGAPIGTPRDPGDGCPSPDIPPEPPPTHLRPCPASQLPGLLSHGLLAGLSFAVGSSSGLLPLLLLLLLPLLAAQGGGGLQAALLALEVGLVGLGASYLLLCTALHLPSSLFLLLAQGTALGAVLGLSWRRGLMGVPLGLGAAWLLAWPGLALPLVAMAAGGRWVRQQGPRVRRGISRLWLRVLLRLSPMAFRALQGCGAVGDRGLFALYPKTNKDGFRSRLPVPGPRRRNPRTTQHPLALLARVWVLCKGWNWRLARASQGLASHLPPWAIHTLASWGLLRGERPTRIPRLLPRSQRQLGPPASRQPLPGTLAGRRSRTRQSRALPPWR
UniProt Q99081: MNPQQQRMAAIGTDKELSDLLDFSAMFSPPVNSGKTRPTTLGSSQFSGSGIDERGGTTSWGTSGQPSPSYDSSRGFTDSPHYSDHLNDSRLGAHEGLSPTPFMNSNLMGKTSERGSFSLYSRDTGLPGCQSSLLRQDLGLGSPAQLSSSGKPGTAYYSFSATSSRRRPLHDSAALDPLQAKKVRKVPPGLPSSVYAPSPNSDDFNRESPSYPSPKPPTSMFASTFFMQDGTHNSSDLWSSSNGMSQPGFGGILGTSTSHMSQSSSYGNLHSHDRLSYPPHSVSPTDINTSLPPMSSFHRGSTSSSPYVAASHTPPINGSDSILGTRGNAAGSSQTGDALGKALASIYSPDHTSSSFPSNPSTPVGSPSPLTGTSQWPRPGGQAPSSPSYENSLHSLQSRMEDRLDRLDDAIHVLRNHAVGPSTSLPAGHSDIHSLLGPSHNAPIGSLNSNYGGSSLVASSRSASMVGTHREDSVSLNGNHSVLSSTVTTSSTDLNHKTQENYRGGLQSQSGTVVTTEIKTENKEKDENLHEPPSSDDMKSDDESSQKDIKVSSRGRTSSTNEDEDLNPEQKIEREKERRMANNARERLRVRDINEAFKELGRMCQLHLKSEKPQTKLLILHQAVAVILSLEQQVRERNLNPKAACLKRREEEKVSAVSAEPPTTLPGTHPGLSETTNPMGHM
UniProt Q13569: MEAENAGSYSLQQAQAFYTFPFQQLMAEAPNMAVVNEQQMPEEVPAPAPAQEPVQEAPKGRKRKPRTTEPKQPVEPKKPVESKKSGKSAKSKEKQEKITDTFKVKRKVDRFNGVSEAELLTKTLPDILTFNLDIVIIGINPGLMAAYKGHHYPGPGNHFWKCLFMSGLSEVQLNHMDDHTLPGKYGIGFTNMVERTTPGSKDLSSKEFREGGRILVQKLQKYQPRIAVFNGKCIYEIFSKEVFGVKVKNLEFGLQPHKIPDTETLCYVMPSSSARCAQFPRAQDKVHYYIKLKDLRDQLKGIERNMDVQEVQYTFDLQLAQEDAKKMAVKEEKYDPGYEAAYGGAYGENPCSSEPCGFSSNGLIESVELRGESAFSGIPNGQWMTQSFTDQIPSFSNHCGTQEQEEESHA
UniProt O75347: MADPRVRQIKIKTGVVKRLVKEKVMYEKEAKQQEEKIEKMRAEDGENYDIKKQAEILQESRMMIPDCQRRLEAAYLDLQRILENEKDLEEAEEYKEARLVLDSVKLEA
UniProt Q9H2K8: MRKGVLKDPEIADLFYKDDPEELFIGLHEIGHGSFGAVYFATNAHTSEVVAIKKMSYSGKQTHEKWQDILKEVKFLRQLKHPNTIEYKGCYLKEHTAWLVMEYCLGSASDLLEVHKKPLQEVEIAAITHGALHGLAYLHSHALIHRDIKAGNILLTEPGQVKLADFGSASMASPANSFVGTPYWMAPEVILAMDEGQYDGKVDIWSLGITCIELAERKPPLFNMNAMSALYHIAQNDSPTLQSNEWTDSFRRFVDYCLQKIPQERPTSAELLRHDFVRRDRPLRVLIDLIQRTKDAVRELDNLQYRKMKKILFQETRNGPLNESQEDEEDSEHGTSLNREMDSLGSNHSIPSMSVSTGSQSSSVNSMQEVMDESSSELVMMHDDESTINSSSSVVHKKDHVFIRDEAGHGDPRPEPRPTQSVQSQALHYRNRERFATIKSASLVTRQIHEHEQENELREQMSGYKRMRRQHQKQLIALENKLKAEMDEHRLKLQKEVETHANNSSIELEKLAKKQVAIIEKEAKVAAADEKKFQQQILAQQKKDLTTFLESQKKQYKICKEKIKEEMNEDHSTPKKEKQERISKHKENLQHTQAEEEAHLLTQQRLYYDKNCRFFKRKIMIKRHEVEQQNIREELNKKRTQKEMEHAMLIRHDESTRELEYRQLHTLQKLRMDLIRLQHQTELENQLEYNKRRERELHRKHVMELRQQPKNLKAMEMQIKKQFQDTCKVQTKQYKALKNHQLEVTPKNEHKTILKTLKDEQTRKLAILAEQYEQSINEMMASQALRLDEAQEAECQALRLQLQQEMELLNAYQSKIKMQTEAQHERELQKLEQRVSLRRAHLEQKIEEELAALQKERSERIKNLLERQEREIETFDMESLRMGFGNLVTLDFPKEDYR
UniProt Q9H5Q4: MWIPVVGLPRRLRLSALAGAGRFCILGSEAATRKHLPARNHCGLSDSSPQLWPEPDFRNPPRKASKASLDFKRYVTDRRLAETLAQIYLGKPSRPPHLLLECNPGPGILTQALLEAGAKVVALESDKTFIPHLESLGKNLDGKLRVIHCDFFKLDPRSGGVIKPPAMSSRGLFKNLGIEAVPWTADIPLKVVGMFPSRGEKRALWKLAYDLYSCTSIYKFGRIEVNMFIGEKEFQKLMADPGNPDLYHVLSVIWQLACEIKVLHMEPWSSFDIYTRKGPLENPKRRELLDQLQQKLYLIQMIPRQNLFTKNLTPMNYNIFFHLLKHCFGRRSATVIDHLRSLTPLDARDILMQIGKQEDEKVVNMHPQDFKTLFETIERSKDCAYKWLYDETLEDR
UniProt Q15554: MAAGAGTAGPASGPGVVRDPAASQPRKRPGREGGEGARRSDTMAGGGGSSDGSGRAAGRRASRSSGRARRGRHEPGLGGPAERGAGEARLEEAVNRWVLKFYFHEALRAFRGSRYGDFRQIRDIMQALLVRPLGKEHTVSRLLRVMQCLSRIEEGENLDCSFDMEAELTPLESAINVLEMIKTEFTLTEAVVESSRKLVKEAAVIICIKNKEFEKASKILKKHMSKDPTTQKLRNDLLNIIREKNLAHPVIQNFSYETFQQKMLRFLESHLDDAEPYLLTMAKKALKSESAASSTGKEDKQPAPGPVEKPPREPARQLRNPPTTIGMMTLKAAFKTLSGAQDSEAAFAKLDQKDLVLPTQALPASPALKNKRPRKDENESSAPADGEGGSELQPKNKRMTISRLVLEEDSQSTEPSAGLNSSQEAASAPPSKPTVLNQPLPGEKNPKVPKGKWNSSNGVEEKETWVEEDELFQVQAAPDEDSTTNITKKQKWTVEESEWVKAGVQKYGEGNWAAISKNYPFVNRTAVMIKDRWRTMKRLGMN

Compound in one experiment: Cc1ncc(-c2ccnc(Nc3ccc(S(C)(=O)=O)cc3)n2)n1C(C)C
Briefly: log2 fold change, soluble protein after heating vs DMSO (PISA); higher = thermal stabilisation; K562 lysate, 10 uM; active = over 0.2 and 3.5 SD of the protein, either way, in both replicates (recomputed). Put shortly:
(§1)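 Values give the log-two fold change in thermal stability against solvent controls, from duplicates. Crude K562 extract at 1 mg/mL protein, made by dounce homogenisation in PBS pH 7.4 with 1 mM MgCl2, was treated with 10 μM compound for 30 min. After 3 min heating across 48°C-58°C, aliquots were pooled, adjusted to 0.5% NP-40 at 4°C and centrifuged at 21,000xg for 90 min. The supernatant was measured by TMTpro 16plex LC-MS/MS with channel sums equalised.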
Consider TBL1XR1 (UniProt Q9BZK7), for which the log2 fold change was inactive: 0.018.

Turning to TANGO6 (UniProt Q9C0B7), the log2 fold change was inactive: 0.019.

In the case of TDP1 (UniProt Q9NUW8), the log2 fold change is inactive: -0.021.

TAOK2 (UniProt Q9UL54): the log2 fold change was inactive: 0.012.

Take TBC1D10B (UniProt Q4KMP7): the log2 fold change was inactive: -0.038.

With TCF12 isoform 3 (UniProt Q99081), the log2 fold change is inactive: 0.052.

For TCOF1 isoform 6 (UniProt Q13428), the log2 fold change is inactive: 0.066.

In the case of TCF4 (UniProt P15884), the log2 fold change was inactive: -0.057.

TDG (UniProt Q13569): the log2 fold change was inactive: 0.037.

TBCA (UniProt O75347): the log2 fold change is inactive: -0.025.

As for TBC1D10A (UniProt Q9BXI6), the log2 fold change is inactive: 0.024.

Take TAOK3 (UniProt Q9H2K8): the log2 fold change was inactive: 0.05.

On to TFB2M (UniProt Q9H5Q4), for which the log2 fold change was inactive: -0.007.

TDRD7 (UniProt Q8NHU6): the log2 fold change is inactive: -0.034.

Turning to TF (UniProt P02787), the log2 fold change is inactive: -0.261.

For the target TERF2 (UniProt Q15554), the log2 fold change is inactive: -0.024.

Compound in the next experiment: Cn1cc(-c2ccc3c(c2)CCN3C(=O)Cc2cccc(C(F)(F)F)c2)c2c(N)ncnc21
Described as above. Put shortly: as §1
With TCAF1 (UniProt Q9Y4C2), the log2 fold change was inactive: 0.061.

With TARS1 (UniProt P26639), the log2 fold change is inactive: -0.015.

For TEX30 (UniProt Q5JUR7), the log2 fold change is inactive: -0.004.

Consider TATDN3 isoform 3 (UniProt Q17R31), for which the log2 fold change was inactive: -0.026.

Consider TAGLN2 isoform 2 (UniProt P37802), for which the log2 fold change is inactive: -0.014.

Consider TAF6L (UniProt Q9Y6J9), for which the log2 fold change is inactive: 0.056.

Consider TATDN1 (UniProt Q6P1N9), for which the log2 fold change is inactive: 0.018.

For the target TAOK1 (UniProt Q7L7X3), the log2 fold change is inactive: -0.075.

As for TBCB (UniProt Q99426), the log2 fold change was inactive: 0.018.

As to TFCP2 (UniProt Q12800), the log2 fold change was inactive: 0.02.

Consider TBL3 (UniProt Q12788), for which the log2 fold change is inactive: 0.011.

Take TARBP2 (UniProt Q15633): the log2 fold change was inactive: -0.056.

On to TFIP11 (UniProt Q9UBB9), for which the log2 fold change is inactive: 0.01.

For TBCE (UniProt Q15813), the log2 fold change is inactive: 0.049.

As to TBC1D14 (UniProt Q9P2M4), the log2 fold change was inactive: -0.146.

As to TFG (UniProt Q92734), the log2 fold change was inactive: -0.004.

Consider TCERG1 (UniProt O14776), for which the log2 fold change was inactive: 0.004.

Take TDRD3 isoform 3 (UniProt Q9H7E2): the log2 fold change is inactive: 0.01.

TFR2 (UniProt Q9UP52): the log2 fold change is inactive: -0.004.

Turning to TBC1D23 (UniProt Q9NUY8), the log2 fold change is inactive: -0.021.

For the target TEX10 (UniProt Q9NXF1), the log2 fold change was inactive: 0.009.

Turning to TBC1D2 (UniProt Q9BYX2), the log2 fold change was inactive: 0.053.

Turning to TAF7 (UniProt Q15545), the log2 fold change was inactive: 0.019.

Regarding TBL1XR1 (UniProt Q9BZK7), the log2 fold change is inactive: 0.005.

For TANGO6 (UniProt Q9C0B7), the log2 fold change was inactive: 0.025.

As to TDP1 (UniProt Q9NUW8), the log2 fold change was inactive: 0.107.

For the target TAOK2 (UniProt Q9UL54), the log2 fold change is inactive: 0.052.

Regarding TBC1D10B (UniProt Q4KMP7), the log2 fold change is inactive: 0.024.

In the case of TCF12 isoform 3 (UniProt Q99081), the log2 fold change is inactive: -0.022.

TCOF1 isoform 6 (UniProt Q13428): the log2 fold change is inactive: -0.025.

Regarding TCF4 (UniProt P15884), the log2 fold change is inactive: 0.01.

On to TDG (UniProt Q13569), for which the log2 fold change is inactive: 0.044.

Consider TBCA (UniProt O75347), for which the log2 fold change was inactive: -0.074.

On to TBC1D10A (UniProt Q9BXI6), for which the log2 fold change was inactive: -0.128.

Take TAOK3 (UniProt Q9H2K8): the log2 fold change was inactive: 0.

As for TFB2M (UniProt Q9H5Q4), the log2 fold change is inactive: -0.002.

As for TDRD7 (UniProt Q8NHU6), the log2 fold change is inactive: -0.013.

With TF (UniProt P02787), the log2 fold change is inactive: 0.017.

For TERF2 (UniProt Q15554), the log2 fold change is inactive: 0.055.

Compound in a further experiment: Cn1cc(CNCC2CCN(c3ncc(C(=O)NO)cn3)CC2)c2ccccc21 [quisinostat]
The experiment is described as above. Put shortly:
as §1
For the target TCAF1 (UniProt Q9Y4C2), the log2 fold change is inactive: -0.018.

Take TARS1 (UniProt P26639): the log2 fold change was inactive: 0.027.

As to TEX30 (UniProt Q5JUR7), the log2 fold change is inactive: 0.007.

For TATDN3 isoform 3 (UniProt Q17R31), the log2 fold change is inactive: -0.112.

With TAGLN2 isoform 2 (UniProt P37802), the log2 fold change is inactive: -0.001.

Consider TAF6L (UniProt Q9Y6J9), for which the log2 fold change was inactive: 0.018.

TATDN1 (UniProt Q6P1N9): the log2 fold change was inactive: 0.015.

On to TAOK1 (UniProt Q7L7X3), for which the log2 fold change was inactive: -0.022.

With TBCB (UniProt Q99426), the log2 fold change is inactive: -0.045.

On to TFCP2 (UniProt Q12800), for which the log2 fold change was inactive: -0.072.

TBL3 (UniProt Q12788): the log2 fold change is inactive: -0.046.

As for TARBP2 (UniProt Q15633), the log2 fold change was inactive: -0.106.

For TFIP11 (UniProt Q9UBB9), the log2 fold change is inactive: -0.067.

For TBCE (UniProt Q15813), the log2 fold change is inactive: -0.025.

Take TBC1D14 (UniProt Q9P2M4): the log2 fold change is inactive: -0.151.

In the case of TFG (UniProt Q92734), the log2 fold change was inactive: 0.014.

As for TCERG1 (UniProt O14776), the log2 fold change was inactive: 0.047.

For the target TDRD3 isoform 3 (UniProt Q9H7E2), the log2 fold change is inactive: -0.023.

Take TFR2 (UniProt Q9UP52): the log2 fold change is inactive: 0.011.

Turning to TBC1D23 (UniProt Q9NUY8), the log2 fold change was inactive: -0.028.

Turning to TEX10 (UniProt Q9NXF1), the log2 fold change is inactive: 0.014.

TBC1D2 (UniProt Q9BYX2): the log2 fold change is inactive: -0.131.

With TAF7 (UniProt Q15545), the log2 fold change is inactive: -0.018.

On to TBL1XR1 (UniProt Q9BZK7), for which the log2 fold change is inactive: -0.032.

As to TANGO6 (UniProt Q9C0B7), the log2 fold change is inactive: -0.056.

Take TDP1 (UniProt Q9NUW8): the log2 fold change is inactive: 0.056.

Turning to TAOK2 (UniProt Q9UL54), the log2 fold change was active: -0.516.

In the case of TBC1D10B (UniProt Q4KMP7), the log2 fold change was inactive: 0.076.

Consider TCF12 isoform 3 (UniProt Q99081), for which the log2 fold change is inactive: 0.02.

Turning to TCOF1 isoform 6 (UniProt Q13428), the log2 fold change is inactive: 0.022.

Turning to TCF4 (UniProt P15884), the log2 fold change is inactive: 0.161.

In the case of TDG (UniProt Q13569), the log2 fold change was inactive: 0.127.

With TBCA (UniProt O75347), the log2 fold change was inactive: 0.051.

With TBC1D10A (UniProt Q9BXI6), the log2 fold change is inactive: 0.025.

For the target TAOK3 (UniProt Q9H2K8), the log2 fold change is inactive: -0.022.

Take TFB2M (UniProt Q9H5Q4): the log2 fold change was inactive: 0.037.

For the target TDRD7 (UniProt Q8NHU6), the log2 fold change was inactive: -0.062.

For the target TF (UniProt P02787), the log2 fold change was inactive: -0.071.

TERF2 (UniProt Q15554): the log2 fold change was inactive: -0.005.
